Test results as given in PubChem BioAssay AID1487 (National Center for Advancing Translational Sciences (NCATS), 2009).
This is one part of the list. Further columns of the screen follow, without active or inactive calls. Most of these compounds were active or inconclusive in the main read-out, so they are no random draw. The note in brackets gives the kind of curve behind each potency; many fits are weak.

Test: qHTS Assay for Modulators of Lamin A Splicing
Settings: HeLa LMNA splicing GFP/RFP minigene ratio, 48 h
Outline: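 Read-out is the ratio of GFP to DsRed2 object intensity, acquired by 488 nm laser-scanning cytometry on HeLa lamin A-EGFP minigene reporter cells. Compound incubation 48 hrs at 37 °C in Opti-MEM with 2% FBS; DMSO 0.5% final.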

[1] = measured here: RFP viability control channel
[2] = measured here: GFP splicing reporter channel

SMILES	AC50 [1]	AC50 [2]
C1CCC(Nc2nc3nonc3nc2N2CCSCC2)C1	0.0562 µM [falling, full curve, poor fit]	–
CCOC(=O)C(=Cc1ccc(F)cc1)C(=O)OCC	8.91 µM [falling, partial curve]	15.8 µM [falling, partial curve]
O=C(NCCc1ccc(Cl)cc1)c1n[nH]c2ccccc12	–	1.41 µM [falling, full curve, poor fit]
CCN(CC)CCn1c2ccccc2c2cnc(N=CN(C)C)c(C#N)c21	11.2 µM [rising, partial curve]	10 µM [rising, partial curve]
CC[n+]1c(/C=C/C=C/N(C(C)=O)c2ccccc2)sc2cc(OC)ccc21	14.1 µM [falling, single point]	12.6 µM [falling, partial curve, poor fit]
FC(F)Sc1ccc(N=C2NN=C(c3ccc4c(c3)OCCO4)CS2)cc1	20 µM [falling, single point]	3.16 µM [falling, single point]
Cc1ccc(NC(=O)c2cc(S(=O)(=O)NC3CCCCCC3)ccc2F)cc1F	35.5 µM [falling, partial curve]	14.1 µM [falling, partial curve]
COc1ccc(CCNc2oc(-c3ccc(C)cc3)nc2C#N)cc1OC	14.1 µM [rising, partial curve, poor fit]	–
CCOc1ccc(C(=O)NC(=S)Nc2ccc(N3CCOCC3)c(Cl)c2)cc1[N+](=O)[O-]	22.4 µM [rising, partial curve, poor fit]	–
CCOc1ccc(C(=O)N2CCc3cc(OC)c(OC)cc3C2)cc1OCC	20 µM [rising, single point]	31.6 µM [rising, single point]
CCOc1ccc(N2C(=O)CC(Sc3nc(C)cc(C)c3C#N)C2=O)cc1 (stereo not drawn)	–	0.0794 µM [rising, full curve, poor fit]
O=C1CC(N2CCN(c3ccccn3)CC2)C(=O)N1CC(c1ccccc1)c1ccccc1 (stereo not drawn)	20 µM [rising, single point]	–
COc1ccccc1NC1=NC(C)(C)N=C(N)N1	–	1.26 µM [rising, full curve]
O=S(=O)(c1cccc(-c2nnc(SC(F)F)n2-c2ccccc2)c1)N1CCCCC1	–	12.6 µM [rising, partial curve, poor fit]
NNC(=O)c1cnn(-c2ccccc2)c1-n1cccc1	–	3.55 µM [rising, single point]
Cn1cnnc1SCC(=O)c1cc2ccccc2oc1=O	35.5 µM [rising, single point]	–
CN(C)c1ccc(C=Nc2ccccc2C(N)=O)cc1	–	11.2 µM [rising, partial curve]
COc1ccc(NC(=O)Cn2nc3c(cc2=O)CCCC3)cc1Cl	–	3.55 µM [falling, full curve]
N#Cc1ccc(C(c2nnnn2CCc2ccccc2)N2CCCCCC2)cc1 (stereo not drawn)	14.1 µM [rising, single point]	11.2 µM [rising, single point]
COc1ccccc1C1=NN(C2=NN=C(N)Cc3ncnn32)C(O)(C(F)(F)F)C1 (stereo not drawn)	0.0178 µM [falling, full curve]	–
O=C(NCc1ccc(Cl)cc1)c1cc2ccc3cccnc3c2[nH]1	17.8 µM [falling, partial curve, poor fit]	11.2 µM [falling, partial curve]
CC1=C(c2ccc(F)cc2)S(=O)(=O)N=C1N1CCC(C(=O)NCCc2ccccc2)CC1	–	0.00447 µM [falling, full curve]
COc1cccc(C2CC(C(F)(F)F)n3nc(C(=O)NCc4cccnc4)cc3N2)c1 (stereo not drawn)	10 µM [rising, partial curve]	–
Cc1ccc(C)c(NC(=O)C2CCN(c3ncnc4c3nc3n4CCCCC3)CC2)c1	0.0501 µM [rising, partial curve]	0.0501 µM [rising, full curve, poor fit]
Cc1ccc2c(CC(=O)NCC(C)(C)N3CCOCC3)coc2c1	–	3.98 µM [rising, full curve]
CN1CCO[C@H](c2ccccc2)c2ccccc2C1	0.158 µM [falling, partial curve, poor fit]	0.0708 µM [falling, single point]
Cc1cccc(C)c1NC(=O)NCCCN1CCN(c2ccccc2)CC1	0.178 µM [falling, full curve, poor fit]	0.158 µM [falling, full curve, poor fit]

Complete entries as entered above. Order of values: AC50 [1] | AC50 [2]
O=C1CC(N2CCN(c3ccccn3)CC2)C(=O)N1CC(c1ccccc1)c1ccccc1 (stereo not drawn) is entered as 20 µM [rising, single point] | –
COc1ccccc1C1=NN(C2=NN=C(N)Cc3ncnn32)C(O)(C(F)(F)F)C1 (stereo not drawn) is entered as 0.0178 µM [falling, full curve] | –
